Among the data in article PMC8672210 are binding values, retold here.

Chains of the proteins cited; added tags and fusions are not shown.
UniProt P84022: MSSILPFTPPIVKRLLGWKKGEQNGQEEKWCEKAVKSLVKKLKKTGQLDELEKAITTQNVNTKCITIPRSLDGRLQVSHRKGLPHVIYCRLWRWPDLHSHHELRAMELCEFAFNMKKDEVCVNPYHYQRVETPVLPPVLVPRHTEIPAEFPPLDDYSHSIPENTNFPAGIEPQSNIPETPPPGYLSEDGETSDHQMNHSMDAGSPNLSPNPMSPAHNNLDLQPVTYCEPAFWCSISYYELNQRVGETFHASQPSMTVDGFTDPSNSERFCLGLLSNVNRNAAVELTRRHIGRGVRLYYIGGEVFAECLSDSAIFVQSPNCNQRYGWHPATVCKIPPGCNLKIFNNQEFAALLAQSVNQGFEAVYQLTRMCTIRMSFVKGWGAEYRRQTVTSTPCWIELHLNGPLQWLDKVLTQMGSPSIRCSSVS

The experiment deals with T1, Sirtuin 2 (human (endogenous in MRC-5)) (UniProt Q8IXJ6).
T1 sequence: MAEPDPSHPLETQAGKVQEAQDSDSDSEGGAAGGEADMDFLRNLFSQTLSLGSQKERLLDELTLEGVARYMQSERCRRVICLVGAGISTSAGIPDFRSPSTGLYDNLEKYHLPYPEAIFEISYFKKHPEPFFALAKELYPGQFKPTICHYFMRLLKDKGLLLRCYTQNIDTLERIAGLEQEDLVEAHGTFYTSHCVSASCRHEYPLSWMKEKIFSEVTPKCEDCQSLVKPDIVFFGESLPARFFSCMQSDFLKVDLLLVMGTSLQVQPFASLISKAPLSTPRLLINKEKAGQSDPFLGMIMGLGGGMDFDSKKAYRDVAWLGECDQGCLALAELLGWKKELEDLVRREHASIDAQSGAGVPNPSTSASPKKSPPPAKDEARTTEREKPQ
In words: co-IP; lysate (400 μg total protein, hypotonic lysis buffer) of MRC-5 cells treated with TGF-β1 at 2 and 5 ng/ml for 24 h; precipitated with rabbit anti-Sirt2 or rabbit IgG on protein A/G beads; immunoblotted with Smad3 antibody. (A western blot detects proteins with antibodies after separation by electrophoresis.)

These are yes or no findings as the source states them, for the method shown. Binding seen in cells or lysates may run through a third protein. Some results given as binding are weak or reduced against the parent protein; the word gives no strength.

For Smad3 (from UniProt P84022 1-425), the binding entry was “binds”.
